Measurements from article PMC3464206.
Results are given in words; binding and its absence hold for the method and conditions named. Binding seen in cells or lysates may run through a third protein. Some results given as binding are weak or reduced against the parent protein; the word gives no strength.

Chains of the proteins cited; added tags and fusions are not shown.
UniProt Q6VH22: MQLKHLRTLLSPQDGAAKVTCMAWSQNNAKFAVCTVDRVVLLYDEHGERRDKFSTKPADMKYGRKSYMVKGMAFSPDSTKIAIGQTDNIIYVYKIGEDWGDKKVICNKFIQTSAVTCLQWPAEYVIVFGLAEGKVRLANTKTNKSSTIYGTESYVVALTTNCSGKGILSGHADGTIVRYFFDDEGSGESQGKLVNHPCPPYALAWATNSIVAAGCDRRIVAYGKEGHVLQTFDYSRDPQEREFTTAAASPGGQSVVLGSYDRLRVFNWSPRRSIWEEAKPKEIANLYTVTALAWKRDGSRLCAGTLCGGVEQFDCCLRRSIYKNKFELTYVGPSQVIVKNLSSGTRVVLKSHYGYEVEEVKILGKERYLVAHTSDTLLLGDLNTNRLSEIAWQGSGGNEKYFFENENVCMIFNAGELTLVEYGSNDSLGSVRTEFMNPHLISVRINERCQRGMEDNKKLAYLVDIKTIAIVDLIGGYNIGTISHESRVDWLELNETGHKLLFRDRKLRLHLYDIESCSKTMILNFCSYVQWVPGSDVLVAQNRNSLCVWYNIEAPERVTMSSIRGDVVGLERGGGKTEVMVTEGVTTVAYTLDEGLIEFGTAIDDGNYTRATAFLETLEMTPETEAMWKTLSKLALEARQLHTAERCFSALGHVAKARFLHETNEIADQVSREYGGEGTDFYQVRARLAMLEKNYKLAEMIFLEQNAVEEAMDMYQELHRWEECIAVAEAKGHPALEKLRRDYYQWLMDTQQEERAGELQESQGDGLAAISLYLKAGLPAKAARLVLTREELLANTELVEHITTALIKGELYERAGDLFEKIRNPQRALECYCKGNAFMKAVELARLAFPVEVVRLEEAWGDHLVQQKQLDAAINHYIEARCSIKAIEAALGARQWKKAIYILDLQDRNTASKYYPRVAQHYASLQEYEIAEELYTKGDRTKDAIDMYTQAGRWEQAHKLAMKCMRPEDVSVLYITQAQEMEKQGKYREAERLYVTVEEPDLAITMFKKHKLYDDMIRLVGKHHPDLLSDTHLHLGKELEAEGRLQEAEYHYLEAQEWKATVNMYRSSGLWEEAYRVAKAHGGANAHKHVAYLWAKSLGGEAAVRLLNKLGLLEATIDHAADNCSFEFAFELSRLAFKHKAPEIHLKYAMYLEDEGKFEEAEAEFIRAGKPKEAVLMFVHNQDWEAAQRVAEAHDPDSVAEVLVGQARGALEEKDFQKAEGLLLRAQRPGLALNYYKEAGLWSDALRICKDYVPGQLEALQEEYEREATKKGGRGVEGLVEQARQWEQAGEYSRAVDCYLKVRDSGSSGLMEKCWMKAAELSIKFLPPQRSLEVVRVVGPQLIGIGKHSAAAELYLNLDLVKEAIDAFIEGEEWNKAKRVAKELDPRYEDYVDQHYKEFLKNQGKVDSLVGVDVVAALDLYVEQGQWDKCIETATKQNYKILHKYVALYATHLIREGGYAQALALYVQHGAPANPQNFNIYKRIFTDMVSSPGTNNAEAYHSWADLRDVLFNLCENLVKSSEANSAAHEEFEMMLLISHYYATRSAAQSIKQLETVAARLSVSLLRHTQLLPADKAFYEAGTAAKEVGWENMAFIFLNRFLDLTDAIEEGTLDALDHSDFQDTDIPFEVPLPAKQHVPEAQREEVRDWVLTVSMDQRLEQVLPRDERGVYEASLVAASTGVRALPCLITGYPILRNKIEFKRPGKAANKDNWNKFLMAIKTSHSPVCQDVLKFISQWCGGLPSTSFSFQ
UniProt P50518: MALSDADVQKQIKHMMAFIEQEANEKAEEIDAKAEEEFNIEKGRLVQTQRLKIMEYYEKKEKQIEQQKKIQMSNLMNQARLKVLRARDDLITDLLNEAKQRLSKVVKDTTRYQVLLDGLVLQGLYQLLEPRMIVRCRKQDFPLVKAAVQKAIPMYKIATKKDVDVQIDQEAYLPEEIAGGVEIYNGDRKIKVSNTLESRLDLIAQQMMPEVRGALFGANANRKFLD
UniProt P00342: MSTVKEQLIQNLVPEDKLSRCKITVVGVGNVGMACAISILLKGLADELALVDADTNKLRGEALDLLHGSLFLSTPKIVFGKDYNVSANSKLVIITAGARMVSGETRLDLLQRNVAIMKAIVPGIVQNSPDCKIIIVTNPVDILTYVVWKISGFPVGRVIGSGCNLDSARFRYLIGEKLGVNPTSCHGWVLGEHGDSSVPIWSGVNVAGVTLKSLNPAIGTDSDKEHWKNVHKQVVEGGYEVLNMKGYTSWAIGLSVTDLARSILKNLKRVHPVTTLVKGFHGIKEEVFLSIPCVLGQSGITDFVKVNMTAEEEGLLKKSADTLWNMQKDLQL
UniProt P48722: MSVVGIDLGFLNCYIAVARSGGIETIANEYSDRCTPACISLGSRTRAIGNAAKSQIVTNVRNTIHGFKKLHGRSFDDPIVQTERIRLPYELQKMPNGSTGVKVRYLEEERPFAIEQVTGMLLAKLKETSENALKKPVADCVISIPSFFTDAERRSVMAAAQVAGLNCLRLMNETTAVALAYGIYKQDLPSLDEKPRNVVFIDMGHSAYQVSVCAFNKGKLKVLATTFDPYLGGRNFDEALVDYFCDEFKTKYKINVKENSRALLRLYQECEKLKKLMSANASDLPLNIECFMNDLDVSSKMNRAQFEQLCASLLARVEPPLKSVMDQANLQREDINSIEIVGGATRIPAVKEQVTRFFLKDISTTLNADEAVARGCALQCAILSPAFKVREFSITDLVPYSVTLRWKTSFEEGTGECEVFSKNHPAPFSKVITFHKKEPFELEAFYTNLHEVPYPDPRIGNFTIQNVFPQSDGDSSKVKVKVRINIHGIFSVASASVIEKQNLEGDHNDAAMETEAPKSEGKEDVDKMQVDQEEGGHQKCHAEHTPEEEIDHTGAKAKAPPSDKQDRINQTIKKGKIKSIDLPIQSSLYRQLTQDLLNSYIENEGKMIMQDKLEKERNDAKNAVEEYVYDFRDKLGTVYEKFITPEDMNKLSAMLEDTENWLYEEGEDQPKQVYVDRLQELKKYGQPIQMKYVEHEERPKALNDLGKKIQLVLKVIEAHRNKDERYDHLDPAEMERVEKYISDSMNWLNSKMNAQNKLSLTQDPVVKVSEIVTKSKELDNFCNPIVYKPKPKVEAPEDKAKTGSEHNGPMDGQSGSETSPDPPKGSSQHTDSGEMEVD

What was measured:
[1] = molecular target: T1, IFT27 (mouse (endogenous in testis)) (UniProt Q9D0P8); test: co-IP; 1 mg adult mouse testis lysate with 4 ug of IFT172, IFT81 or IFT27 antibody, with or without exogenous GTP; protein G magnetic beads; Western blot for RABL2; isotype-matched immunoglobulin as control
T1 sequence: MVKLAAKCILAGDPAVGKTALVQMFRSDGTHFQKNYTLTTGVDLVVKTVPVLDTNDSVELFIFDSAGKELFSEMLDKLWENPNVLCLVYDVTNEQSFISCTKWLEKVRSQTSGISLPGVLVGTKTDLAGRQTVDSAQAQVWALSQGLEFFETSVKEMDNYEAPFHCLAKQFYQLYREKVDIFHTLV

[2] = molecular target: IFT172 (mouse (endogenous in testis)) (UniProt Q6VH22); test: as above
[3] = molecular target: T2, IFT81 (mouse (endogenous in testis)) (UniProt O35594); test: as above
T2 sequence: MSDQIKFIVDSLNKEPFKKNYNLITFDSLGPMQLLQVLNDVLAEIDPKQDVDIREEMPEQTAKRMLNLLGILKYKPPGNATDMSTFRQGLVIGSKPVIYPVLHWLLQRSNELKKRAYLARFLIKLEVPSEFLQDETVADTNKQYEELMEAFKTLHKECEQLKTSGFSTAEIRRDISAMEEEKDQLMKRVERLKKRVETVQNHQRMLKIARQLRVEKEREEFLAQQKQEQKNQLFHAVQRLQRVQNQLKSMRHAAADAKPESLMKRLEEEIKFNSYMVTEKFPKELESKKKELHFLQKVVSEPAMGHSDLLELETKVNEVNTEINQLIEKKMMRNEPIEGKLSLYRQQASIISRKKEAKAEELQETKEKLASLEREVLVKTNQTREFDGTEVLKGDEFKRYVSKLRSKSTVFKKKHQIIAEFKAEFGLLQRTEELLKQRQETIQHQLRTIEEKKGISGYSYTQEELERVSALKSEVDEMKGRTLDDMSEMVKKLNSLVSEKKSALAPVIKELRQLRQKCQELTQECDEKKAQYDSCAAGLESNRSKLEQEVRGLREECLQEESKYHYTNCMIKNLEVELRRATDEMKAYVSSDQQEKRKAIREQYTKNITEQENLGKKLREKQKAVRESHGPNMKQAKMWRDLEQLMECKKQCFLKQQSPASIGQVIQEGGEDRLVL

[4] = molecular target: ATP6V1E1 (mouse (endogenous in testis)) (UniProt P50518); test: co-IP; 2 mg adult mouse testis lysate with 4 ug antibody against the effector protein, supplemented with 100 uM GTPgammaS; protein G magnetic beads, eluted with 0.1 M glycine pH 2.7; Western blot for RABL2; matched immunoglobulin as control
[5] = molecular target: LDHC (mouse (endogenous in testis)) (UniProt P00342); test: as above
[6] = molecular target: T3, HK1 (mouse (endogenous in testis)) (UniProt P17710); test: as above
T3 sequence: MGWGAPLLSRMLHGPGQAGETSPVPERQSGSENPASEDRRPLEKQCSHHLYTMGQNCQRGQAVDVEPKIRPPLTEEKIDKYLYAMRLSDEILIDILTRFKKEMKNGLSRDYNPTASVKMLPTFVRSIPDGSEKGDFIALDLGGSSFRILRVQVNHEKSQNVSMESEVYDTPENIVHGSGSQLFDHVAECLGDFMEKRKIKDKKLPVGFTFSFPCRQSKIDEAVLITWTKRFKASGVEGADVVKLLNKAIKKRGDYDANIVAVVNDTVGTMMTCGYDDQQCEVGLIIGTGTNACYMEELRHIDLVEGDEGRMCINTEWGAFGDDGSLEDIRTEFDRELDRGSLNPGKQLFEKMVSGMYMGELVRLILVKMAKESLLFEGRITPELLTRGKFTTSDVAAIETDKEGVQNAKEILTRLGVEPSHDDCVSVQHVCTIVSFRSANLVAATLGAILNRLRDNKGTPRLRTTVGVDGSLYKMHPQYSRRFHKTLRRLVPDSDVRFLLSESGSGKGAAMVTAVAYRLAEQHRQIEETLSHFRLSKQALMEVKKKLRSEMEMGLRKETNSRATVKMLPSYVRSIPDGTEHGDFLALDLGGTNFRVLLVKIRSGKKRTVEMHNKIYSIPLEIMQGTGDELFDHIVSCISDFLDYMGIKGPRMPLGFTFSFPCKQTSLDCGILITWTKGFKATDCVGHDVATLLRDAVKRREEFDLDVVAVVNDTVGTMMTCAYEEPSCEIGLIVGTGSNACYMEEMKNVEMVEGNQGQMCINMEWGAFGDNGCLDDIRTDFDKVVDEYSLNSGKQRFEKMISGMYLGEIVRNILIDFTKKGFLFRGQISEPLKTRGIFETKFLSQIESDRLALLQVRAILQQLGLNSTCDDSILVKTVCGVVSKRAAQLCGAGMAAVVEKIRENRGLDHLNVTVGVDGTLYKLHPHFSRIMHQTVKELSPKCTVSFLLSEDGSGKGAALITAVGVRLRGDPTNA

[7] = molecular target: HSPA4L (mouse (endogenous in testis)) (UniProt P48722); test: as above
[8] = molecular target: T4, microtubule plus end trafficking protein EB1 (mouse (endogenous in testis)) (UniProt Q61166); test: as above
T4 sequence: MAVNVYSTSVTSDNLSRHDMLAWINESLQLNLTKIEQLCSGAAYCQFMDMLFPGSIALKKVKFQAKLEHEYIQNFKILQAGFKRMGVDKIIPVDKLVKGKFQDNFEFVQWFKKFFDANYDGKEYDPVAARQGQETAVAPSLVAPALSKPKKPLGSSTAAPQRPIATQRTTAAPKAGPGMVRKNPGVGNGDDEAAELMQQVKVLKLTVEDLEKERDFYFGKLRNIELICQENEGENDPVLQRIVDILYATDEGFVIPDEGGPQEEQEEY

[9] = molecular target: T5, recombinant RABL2 (isoform 2), conjugated to agarose (mouse) (UniProt E9Q9D5); test: pull-down; additional GTP-RABL2 and GDP-RABL2 affinity column eluates from adult mouse testis extracts, Western blotting for candidate effector proteins; only the target purified
T5 sequence: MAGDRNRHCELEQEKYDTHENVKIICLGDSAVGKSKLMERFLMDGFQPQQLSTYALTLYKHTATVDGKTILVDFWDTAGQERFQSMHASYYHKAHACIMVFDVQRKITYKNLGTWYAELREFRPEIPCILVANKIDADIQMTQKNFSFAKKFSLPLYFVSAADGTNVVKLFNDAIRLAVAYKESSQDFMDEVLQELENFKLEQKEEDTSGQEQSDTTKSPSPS

Measured: binding

B1: RAB-like 2 (RABL2), endogenous in mouse testis (protein, UniProt E9Q9D5-2 1-223)
chain: MAGDRNRHCELEQEKYDTHENVKIICLGDSAVGKSKLMERFLMDGFQPQQLSTYALTLYKHTATVDGKTILVDFWDTAGQERFQSMHASYYHKAHACIMVFDVQRKITYKNLGTWYAELREFRPEIPCILVANKIDADIQMTQKNFSFAKKFSLPLYFVSAADGTNVVKLFNDAIRLAVAYKESSQDFMDEVLQELENFKLEQKEEDTSGQEQSDTTKSPSPS
not listed: [9]
binds: all other assays above

B2: microtubule plus end trafficking protein EB1 (protein, UniProt Q61166 1-268)
chain: MAVNVYSTSVTSDNLSRHDMLAWINESLQLNLTKIEQLCSGAAYCQFMDMLFPGSIALKKVKFQAKLEHEYIQNFKILQAGFKRMGVDKIIPVDKLVKGKFQDNFEFVQWFKKFFDANYDGKEYDPVAARQGQETAVAPSLVAPALSKPKKPLGSSTAAPQRPIATQRTTAAPKAGPGMVRKNPGVGNGDDEAAELMQQVKVLKLTVEDLEKERDFYFGKLRNIELICQENEGENDPVLQRIVDILYATDEGFVIPDEGGPQEEQEEY
binds: [9]
